Some of the results follow.
molecular target: T1, OsSMF1 (Oryza sativa, UniProt Q6ZLB0 1-436); experiment: protein-binding microarray (RPBM); PBS, 2% BSA, 51.3 ng/ul salmon testes DNA, 50 uM zinc acetate, 200 nM TF, 25 C, 1 h; high values mean tight binding; conditions: protein: recombinant; tags: N-terminal polyhistidine and DsRed monomer fusion (pET32a); chain copies: 2; label: CyDye5-dUTP incorporated in the synthesized complementary strand; 3' TTTTT single-stranded linker to array surface; dsDNA, one strand shown
T1 sequence: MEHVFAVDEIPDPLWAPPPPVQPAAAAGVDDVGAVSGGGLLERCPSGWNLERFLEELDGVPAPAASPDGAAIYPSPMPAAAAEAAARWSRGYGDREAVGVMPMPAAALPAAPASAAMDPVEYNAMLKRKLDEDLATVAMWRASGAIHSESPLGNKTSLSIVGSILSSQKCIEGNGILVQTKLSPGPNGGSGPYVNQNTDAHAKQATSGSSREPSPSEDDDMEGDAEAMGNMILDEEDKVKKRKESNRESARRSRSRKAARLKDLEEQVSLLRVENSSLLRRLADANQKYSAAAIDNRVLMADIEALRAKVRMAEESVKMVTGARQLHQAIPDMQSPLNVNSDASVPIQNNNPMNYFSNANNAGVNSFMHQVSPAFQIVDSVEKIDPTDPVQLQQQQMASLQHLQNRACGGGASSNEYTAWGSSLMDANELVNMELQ
Method in brief: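 The binding signal for each feature is its fluorescence intensity in arbitrary units. An Axon 4000B scanner was used to read a custom Agilent array that had been made double-stranded with Cy5-dUTP primer extension, blocked with 2% BSA, incubated at 25 °C for 1 h with 200 nM protein in PBS, 2% BSA, salmon testes DNA and 50 µM zinc acetate, and washed. The protein was an N-terminal polyhistidine–DsRed transcription factor fusion from E. coli BL21-CodonPlus, purified on Ni–NTA.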

Q: For “CTAGCTTAATTCTGTTTTCATCGTTGTTGGTTTACTTTGACGGAGTCACCTAGTGCAG”, which binding signal is on record?
A: 25100 fluorescence intensity (a.u.)

Q: How did the binding signal turn out when “TCCTGGGAAGGCATATAAATTGTTACGTGGTACTTAGAATCGGAGTCACCTAGTGCAG” was run?
A: 3540 fluorescence intensity (a.u.)

Q: How did the binding signal turn out when “CTACCCCGGATAGCGGATTCACCAAGTTCGCAGCAGCAATCGGAGTCACCTAGTGCAG” was run?
A: 19200 fluorescence intensity (a.u.)

Q: With “AATCCTCTTTGGGAGGACATGGCTTTTGTGTTTAGTGAATCGGAGTCACCTAGTGCAG” as the sequence, how does the binding signal read?
A: 4060 fluorescence intensity (a.u.)

Q: “GGCGCTGATGTCATGCTGACGTCAGTGCCTGATTTTGCTCCGGAGTCACCTAGTGCAG” was tested. Which binding signal did it give?
A: 56100 fluorescence intensity (a.u.)

Q: “TCCGCCCATCCAGTCTTGGCCGCGGCGCCACCTCGCAGGTCGGAGTCACCTAGTGCAG” was tested. Which binding signal did it give?
A: 3600 fluorescence intensity (a.u.)

Q: “TTTTCGGCCAAATATTCCCGCGCCATCTCCGCTTTGTCAGCGGAGTCACCTAGTGCAG” was tested. Which binding signal did it give?
A: 3600 fluorescence intensity (a.u.)

Q: How did the binding signal turn out when “GCCGACGGTTGGGGCATGCATCTCGTCAGCCTCTAACGGCCGGAGTCACCTAGTGCAG” was run?
A: 5810 fluorescence intensity (a.u.)

Q: With “GCGAAGTGTCATTGCCGGCTCAGTGGATACACACACAGGACGGAGTCACCTAGTGCAG” as the sequence, how does the binding signal read?
A: 3330 fluorescence intensity (a.u.)

Q: Which binding signal does the source give for “TAGGATTGGCGAAGACACCATAGACGAATCTGTAATGAAGCGGAGTCACCTAGTGCAG” here?
A: 3370 fluorescence intensity (a.u.)

Q: For “AGACGAAAACGGCCGTCACCGTCCCGTCGCCGTCATCCGGCGGAGTCACCTAGTGCAG”, which binding signal is on record?
A: 3670 fluorescence intensity (a.u.)

Q: How did the binding signal turn out when “TATCCAACTCCGCGTCCGTCCAGCTCTGCTTCCTACACAACGGAGTCACCTAGTGCAG” was run?
A: 3190 fluorescence intensity (a.u.)

Q: “CCTCCCCTCCGAAATGGTACGCCCGTATTTATACCCGTACCGGAGTCACCTAGTGCAG” was tested. Which binding signal did it give?
A: 36100 fluorescence intensity (a.u.)

Q: “AAGCAAACGGTAGAGAGTTGTGATTGGTTGAGTAGTAGAGCGGAGTCACCTAGTGCAG” was tested. Which binding signal did it give?
A: 5120 fluorescence intensity (a.u.)

Q: Which binding signal does the source give for “TTCTGAAAGTGCTTATGTGTGCGTATTGTGAGCGCATGTACGGAGTCACCTAGTGCAG” here?
A: 20300 fluorescence intensity (a.u.)

Q: How did the binding signal turn out when “GCAATCTTTTAAACATTTCCACGCAGGTGATGTAAGCTTTCGGAGTCACCTAGTGCAG” was run?
A: 3920 fluorescence intensity (a.u.)

Q: Which binding signal does the source give for “CTATATTTTACTATAAGCTTAATCAAACTTCAAAATATTTCGGAGTCACCTAGTGCAG” here?
A: 14400 fluorescence intensity (a.u.)

Q: With “TTAATGCGAGATTGTGTGGCAGATTCATCCTTTCATTTAGCGGAGTCACCTAGTGCAG” as the sequence, how does the binding signal read?
A: 3920 fluorescence intensity (a.u.)

Q: With “TTGGCGTCTTGACGTGTTCGGAGAATTTCCTCTCATTTATCGGAGTCACCTAGTGCAG” as the sequence, how does the binding signal read?
A: 5280 fluorescence intensity (a.u.)

Q: For “TCATGCGTGAATGCTAAGATCGATCGGCTTAAGCTCAATGCGGAGTCACCTAGTGCAG”, which binding signal is on record?
A: 3550 fluorescence intensity (a.u.)

Q: For “GCCCGCTCGCCCTCTCCCGTGCTGACGCCGGCGCTGAGGCCGGAGTCACCTAGTGCAG”, which binding signal is on record?
A: 5700 fluorescence intensity (a.u.)

Q: For “GGCGAATCCGAGGCAGATGGTGCCGTCGTGGACAGAGGCCCGGAGTCACCTAGTGCAG”, which binding signal is on record?
A: 4570 fluorescence intensity (a.u.)

Q: For “CTCCTCGGTTTTCATGCCACGCTTTTCAAATTGCTAAACACGGAGTCACCTAGTGCAG”, which binding signal is on record?
A: 3540 fluorescence intensity (a.u.)

Q: “CCATTCGTCAGTAATCTATTGGGGTAGTCAGGCTCGTCCCCGGAGTCACCTAGTGCAG” was tested. Which binding signal did it give?
A: 29200 fluorescence intensity (a.u.)

Q: With “TCCCTGTTTGTTGGGTCACCAAAGTTGCATCCGACCTATTCGGAGTCACCTAGTGCAG” as the sequence, how does the binding signal read?
A: 38300 fluorescence intensity (a.u.)

Q: Which binding signal does the source give for “AAGCTCTATAGAATCATTGGCCAGCTGGACAGACAGTCACCGGAGTCACCTAGTGCAG” here?
A: 3770 fluorescence intensity (a.u.)

Q: “TTAATTCTAATGCCACTTAAGCGCAACGTCAACACCACGTCGGAGTCACCTAGTGCAG” was tested. Which binding signal did it give?
A: 18200 fluorescence intensity (a.u.)

Q: Which binding signal does the source give for “AAGAGGAAGAGAGTGGAGGGGAAGAAGGGGCTGACATGTGCGGAGTCACCTAGTGCAG” here?
A: 5910 fluorescence intensity (a.u.)

Q: Which binding signal does the source give for “GACGTATGTTCATCGGAGAGTCCGTCAGCCTTGTCAAAGGCGGAGTCACCTAGTGCAG” here?
A: 3450 fluorescence intensity (a.u.)

Q: “TAAATTATTAGAGCGCCACGTGGCGGCTTAGAAACGTTTGCGGAGTCACCTAGTGCAG” was tested. Which binding signal did it give?
A: 21000 fluorescence intensity (a.u.)

Q: Which binding signal does the source give for “CGTTCAGATCAGGCGGACTAGGGGAGTACTCCTACGTGTTCGGAGTCACCTAGTGCAG” here?
A: 3920 fluorescence intensity (a.u.)

Q: How did the binding signal turn out when “GCTCCCCTCCTCCTTCGCGCCGCGCCGCCGCCACTCGCCACGGAGTCACCTAGTGCAG” was run?
A: 3820 fluorescence intensity (a.u.)

Q: For “CAGAAAACAATAGTTATATTTAAGATGGGACGAATGGAGTCGGAGTCACCTAGTGCAG”, which binding signal is on record?
A: 53100 fluorescence intensity (a.u.)

Q: For “TGTCCCAGCGTCCACGTATACGTTACGTTCCAGAGCTAGCCGGAGTCACCTAGTGCAG”, which binding signal is on record?
A: 8220 fluorescence intensity (a.u.)

Q: For “CGGGGTGACACATCATTTTGAGGCCACTTGTAGCTCCTATCGGAGTCACCTAGTGCAG”, which binding signal is on record?
A: 9980 fluorescence intensity (a.u.)

Q: For “TTTGGTCTCTAAACTTTAGATGTGTAAACTTGAGATGTATCGGAGTCACCTAGTGCAG”, which binding signal is on record?
A: 3780 fluorescence intensity (a.u.)

Q: Which binding signal does the source give for “TCGATTTACTGACAAAATTGTATCCCAAAACAATGGCTTACGGAGTCACCTAGTGCAG” here?
A: 33700 fluorescence intensity (a.u.)

Q: Which binding signal does the source give for “TCCCTACCAGAAGACATGTCAGCCTCTACGCAACCATTACCGGAGTCACCTAGTGCAG” here?
A: 6870 fluorescence intensity (a.u.)

Q: “CCGGGCCACCAGCTCCTCGCCGCCACGACACCATGAGCCGCGGAGTCACCTAGTGCAG” was tested. Which binding signal did it give?
A: 6130 fluorescence intensity (a.u.)

Q: For “GGCGGGCGGCTAGTCGTACGTCGCAAGCTACTCGACACGTCGGAGTCACCTAGTGCAG”, which binding signal is on record?
A: 4060 fluorescence intensity (a.u.)

Q: How did the binding signal turn out when “GTATATTCTACTCGCGTCACTCACCCACTGTGTGACTGACCGGAGTCACCTAGTGCAG” was run?
A: 6080 fluorescence intensity (a.u.)

Q: “CCTCGCCGTTGTGTGAATGCGCACGTGGCTGGTACAACGACGGAGTCACCTAGTGCAG” was tested. Which binding signal did it give?
A: 6810 fluorescence intensity (a.u.)
